Some results were stated once for a whole list of compounds, not compound by compound.
Columns and labels:
Assay type in all cases: in vivo
[1] = tested on: larvae of the mustard beetle (Phaedon cochleariae); experiment: Phaedon test (PHAECO spray treatment); details: application rate of 500 g/ha; sprayed disks of Chinese cabbage
[2] = tested on: green peach aphid (Myzus persicae); experiment: Myzus test (MYZUPE spray treatment); details: application rate of 500 g/ha; sprayed disks of Chinese cabbage
[3] = tested on: caterpillars of the armyworm (Spodoptera frugiperda); experiment: Spodoptera frugiperda test (SPODFR spray treatment); details: application rate of 500 g/ha; sprayed disks of maize leaves
Lolium multiflorum [4] = experiment: Herbicidal pre-emergence action; details: pre-emergence method at 320 g of a.i./ha; visual assessment after 3 weeks
Setaria viridis [5] = experiment: Herbicidal pre-emergence action; details: pre-emergence method at 320 g of a.i./ha; visual assessment after 3 weeks
Echinohcloa crus-gali = experiment: Herbicidal pre-emergence action; details: pre-emergence method at 320 g of a.i./ha; visual assessment after 3 weeks
Avena fatua = experiment: Herbicidal post-emergence action (Example 5); details: post-emergence method at 320 g of a.i./ha; rated visually after about 3 weeks
Lolium multiflorum [6] = experiment: Herbicidal post-emergence action (Example 5); details: post-emergence method at 320 g of a.i./ha; rated visually after about 3 weeks
Setaria viridis [7] = experiment: Herbicidal post-emergence action (Example 5); details: post-emergence method at 320 g of a.i./ha; rated visually after about 3 weeks
Echinochloa crus-galli = experiment: Herbicidal post-emergence action (Example 5); details: post-emergence method at 320 g of a.i./ha; rated visually after about 3 weeks
[8] = tested on: greenhouse rat spider mite (Tetranychus urticae); experiment: Tetranychus test; OP resistant (TETRUR spray treatment); details: application rate of 100 g/ha; sprayed disks of bean leaves

CO[C@H]1CC[C@@]2(C1)NC(=O)C(c1c(C)cc(C)cc1C)=C2O [Example I-1-a-1]
≥ 80%: efficacy (effect in %, beetle larvae killed) [1] | efficacy (effect in %, aphids killed) [2] | efficacy (effect in %, caterpillars killed) [3]

CCc1cc(C)cc(Br)c1C1=C(O)C2(CCC(OC)C2)NC1=O (stereo not shown) [Example I-1-a-2]
≥ 80%: efficacy (effect in %, beetle larvae killed) [1] | efficacy (effect in %, aphids killed) [2] | efficacy (herbicidal activity in percent) against Lolium multiflorum (Lolium multiflorum [4]) | efficacy (herbicidal activity in percent) against Setaria viridis (Setaria viridis [5]) | efficacy (herbicidal activity in percent) against Echinohcloa crus-gali (Echinohcloa crus-gali) | efficacy (herbicidal activity in percent) against Avena fatua (Avena fatua) | efficacy (herbicidal activity in percent) against Lolium multiflorum (Lolium multiflorum [6]) | efficacy (herbicidal activity in percent) against Setaria viridis (Setaria viridis [7]) | efficacy (herbicidal activity in percent) against Echinochloa crus-galli (Echinochloa crus-galli)

CCc1cc(Cl)cc(OC)c1C1=C(O)C2(CCC(OC)C2)NC1=O (stereo not shown) [Example I-1-a-5]
≥ 80%: efficacy (herbicidal activity in percent) against Lolium multiflorum (Lolium multiflorum [4]) | efficacy (herbicidal activity in percent) against Echinohcloa crus-gali (Echinohcloa crus-gali)

COC1CCC2(C1)NC(=O)C(c1c(C)cc(C)cc1C)=C2O (stereo not shown) [Example I-1-a-6]
≥ 80%: efficacy (effect in %, beetle larvae killed) [1] | efficacy (effect in %, aphids killed) [2] | efficacy (herbicidal activity in percent) against Lolium multiflorum (Lolium multiflorum [4]) | efficacy (herbicidal activity in percent) against Echinohcloa crus-gali (Echinohcloa crus-gali)

CCOC1CCC2(C1)NC(=O)C(c1c(Br)cc(C)cc1CC)=C2O (stereo not shown) [Example I-1-a-7]
≥ 80%: efficacy (effect in %, aphids killed) [2] | efficacy (herbicidal activity in percent) against Lolium multiflorum (Lolium multiflorum [4]) | efficacy (herbicidal activity in percent) against Echinohcloa crus-gali (Echinohcloa crus-gali) | efficacy (herbicidal activity in percent) against Avena fatua (Avena fatua) | efficacy (herbicidal activity in percent) against Lolium multiflorum (Lolium multiflorum [6]) | efficacy (herbicidal activity in percent) against Setaria viridis (Setaria viridis [7]) | efficacy (herbicidal activity in percent) against Echinochloa crus-galli (Echinochloa crus-galli)

CCc1cc(Cl)cc(OC)c1C1=C(O)C2(CCC(O)C2)NC1=O (stereo not shown) [Example I-1-a-8]
≥ 80%: efficacy (herbicidal activity in percent) against Lolium multiflorum (Lolium multiflorum [4]) | efficacy (herbicidal activity in percent) against Setaria viridis (Setaria viridis [5]) | efficacy (herbicidal activity in percent) against Avena fatua (Avena fatua) | efficacy (herbicidal activity in percent) against Lolium multiflorum (Lolium multiflorum [6]) | efficacy (herbicidal activity in percent) against Setaria viridis (Setaria viridis [7]) | efficacy (herbicidal activity in percent) against Echinochloa crus-galli (Echinochloa crus-galli)

CCOC1CCC2(C1)NC(=O)C(c1c(C)cc(C)cc1C)=C2O (stereo not shown) [Example I-1-a-9]
≥ 80%: efficacy (effect in %, beetle larvae killed) [1] | efficacy (effect in %, aphids killed) [2]

CCCCOC1CCC2(C1)NC(=O)C(c1c(Br)cc(C)cc1CC)=C2O (stereo not shown) [Example I-1-a-12]
≥ 80%: efficacy (effect in %, aphids killed) [2] | efficacy (herbicidal activity in percent) against Lolium multiflorum (Lolium multiflorum [4]) | efficacy (herbicidal activity in percent) against Echinohcloa crus-gali (Echinohcloa crus-gali) | efficacy (herbicidal activity in percent) against Avena fatua (Avena fatua) | efficacy (herbicidal activity in percent) against Lolium multiflorum (Lolium multiflorum [6]) | efficacy (herbicidal activity in percent) against Setaria viridis (Setaria viridis [7]) | efficacy (herbicidal activity in percent) against Echinochloa crus-galli (Echinochloa crus-galli)

CCCCOC1CCC2(C1)NC(=O)C(c1c(C)cc(C)cc1C)=C2O (stereo not shown) [Example I-1-a-13]
≥ 80%: efficacy (effect in %, beetle larvae killed) [1] | efficacy (effect in %, aphids killed) [2]

COC1CCC2(C1)NC(=O)C(c1cc(-c3ccc(Cl)cc3)ccc1C)=C2O (stereo not shown) [Example I-1-a-16]
≥ 80%: efficacy (effect in %, beetle larvae killed) [1] | efficacy (effect in %, aphids killed) [2] | efficacy (effect in %, caterpillars killed) [3]

CCCOC1CCC2(C1)NC(=O)C(c1c(C)cc(C)cc1C)=C2O (stereo not shown) [Example I-1-a-17]
≥ 80%: efficacy (effect in %, beetle larvae killed) [1] | efficacy (effect in %, aphids killed) [2]

CCCOC1CCC2(C1)NC(=O)C(c1c(Br)cc(C)cc1CC)=C2O (stereo not shown) [Example I-1-a-19]
≥ 80%: efficacy (effect in %, aphids killed) [2]

CCCOC1CCC2(C1)NC(=O)C(c1c(Br)cc(C)cc1CC)=C2O (stereo not shown) [Example I-1-a-20]
≥ 80%: efficacy (herbicidal activity in percent) against Lolium multiflorum (Lolium multiflorum [4]) | efficacy (herbicidal activity in percent) against Echinohcloa crus-gali (Echinohcloa crus-gali) | efficacy (herbicidal activity in percent) against Avena fatua (Avena fatua) | efficacy (herbicidal activity in percent) against Lolium multiflorum (Lolium multiflorum [6]) | efficacy (herbicidal activity in percent) against Setaria viridis (Setaria viridis [7]) | efficacy (herbicidal activity in percent) against Echinochloa crus-galli (Echinochloa crus-galli)

CO[C@@H]1CC[C@@]2(C1)NC(=O)C(c1c(C)cc(C)cc1C)=C2OC(=O)C(C)C [Example I-1-b-1]
≥ 80%: efficacy (effect in %, aphids killed) [2] | efficacy (effect in %, spider mites killed) [8]

CCc1cc(C)cc(Br)c1C1=C(OC(=O)C(C)C)C2(CCC(OC)C2)NC1=O (stereo not shown) [Example I-1-b-2]
≥ 80%: efficacy (effect in %, aphids killed) [2] | efficacy (herbicidal activity in percent) against Lolium multiflorum (Lolium multiflorum [4]) | efficacy (herbicidal activity in percent) against Echinohcloa crus-gali (Echinohcloa crus-gali) | efficacy (herbicidal activity in percent) against Avena fatua (Avena fatua) | efficacy (herbicidal activity in percent) against Lolium multiflorum (Lolium multiflorum [6]) | efficacy (herbicidal activity in percent) against Setaria viridis (Setaria viridis [7]) | efficacy (herbicidal activity in percent) against Echinochloa crus-galli (Echinochloa crus-galli)

CCc1cc(Cl)cc(OC)c1C1=C(OC(=O)C(C)C)C2(CCC(OC)C2)NC1=O (stereo not shown) [Example I-1-b-3]
≥ 80%: efficacy (herbicidal activity in percent) against Lolium multiflorum (Lolium multiflorum [4]) | efficacy (herbicidal activity in percent) against Echinohcloa crus-gali (Echinohcloa crus-gali) | efficacy (herbicidal activity in percent) against Avena fatua (Avena fatua) | efficacy (herbicidal activity in percent) against Lolium multiflorum (Lolium multiflorum [6]) | efficacy (herbicidal activity in percent) against Setaria viridis (Setaria viridis [7]) | efficacy (herbicidal activity in percent) against Echinochloa crus-galli (Echinochloa crus-galli)

CCOC(=O)OC1=C(c2c(CC)cc(Cl)cc2OC)C(=O)N[C@]12CC[C@@H](OC)C2 [Example I-1-c-1]
≥ 80%: efficacy (herbicidal activity in percent) against Lolium multiflorum (Lolium multiflorum [4]) | efficacy (herbicidal activity in percent) against Echinohcloa crus-gali (Echinohcloa crus-gali) | efficacy (herbicidal activity in percent) against Avena fatua (Avena fatua) | efficacy (herbicidal activity in percent) against Lolium multiflorum (Lolium multiflorum [6]) | efficacy (herbicidal activity in percent) against Setaria viridis (Setaria viridis [7]) | efficacy (herbicidal activity in percent) against Echinochloa crus-galli (Echinochloa crus-galli)

CCOC(=O)OC1=C(c2c(Br)cc(C)cc2CC)C(=O)N[C@]12CC[C@@H](OC)C2 [Example I-1-c-2]
≥ 80%: efficacy (effect in %, aphids killed) [2] | efficacy (herbicidal activity in percent) against Lolium multiflorum (Lolium multiflorum [4]) | efficacy (herbicidal activity in percent) against Echinohcloa crus-gali (Echinohcloa crus-gali) | efficacy (herbicidal activity in percent) against Avena fatua (Avena fatua) | efficacy (herbicidal activity in percent) against Lolium multiflorum (Lolium multiflorum [6]) | efficacy (herbicidal activity in percent) against Setaria viridis (Setaria viridis [7]) | efficacy (herbicidal activity in percent) against Echinochloa crus-galli (Echinochloa crus-galli)

CCOC(=O)OC1=C(c2c(C)cc(C)cc2Cl)C(=O)NC12CCC(OC)C2 (stereo not shown) [Example I-1-c-6]
≥ 80%: efficacy (effect in %, beetle larvae killed) [1] | efficacy (effect in %, aphids killed) [2] | efficacy (effect in %, caterpillars killed) [3]

CCCCOC1CCC2(C1)NC(=O)C(c1c(C)cc(Br)cc1CC)=C2OC(=O)OCC (stereo not shown) [Example I-1-c-7]
≥ 80%: efficacy (herbicidal activity in percent) against Lolium multiflorum (Lolium multiflorum [4]) | efficacy (herbicidal activity in percent) against Echinohcloa crus-gali (Echinohcloa crus-gali)

CCCCOC1CCC2(C1)NC(=O)C(c1c(C)cc(C)cc1C)=C2OC(=O)OCC (stereo not shown) [Example I-1-c-8]
≥ 80%: efficacy (effect in %, aphids killed) [2]

CCCCOC1CCC2(C1)NC(=O)C(c1c(Br)cc(C)cc1CC)=C2OC(=O)OCC (stereo not shown) [Example I-1-c-9]
≥ 80%: efficacy (herbicidal activity in percent) against Lolium multiflorum (Lolium multiflorum [4]) | efficacy (herbicidal activity in percent) against Echinohcloa crus-gali (Echinohcloa crus-gali)

CCCCOC1CCC2(C1)NC(=O)C(c1c(C)cc(C)cc1C)=C2OC(=O)OCC (stereo not shown) [Example I-1-c-10]
≥ 80%: efficacy (effect in %, beetle larvae killed) [1] | efficacy (herbicidal activity in percent) against Lolium multiflorum (Lolium multiflorum [4]) | efficacy (herbicidal activity in percent) against Echinohcloa crus-gali (Echinohcloa crus-gali)

CCOC(=O)OC1=C(c2c(Br)cc(C)cc2CC)C(=O)NC12CCC(OCC)C2 (stereo not shown) [Example I-1-c-11]
≥ 80%: efficacy (herbicidal activity in percent) against Lolium multiflorum (Lolium multiflorum [4]) | efficacy (herbicidal activity in percent) against Echinohcloa crus-gali (Echinohcloa crus-gali) | efficacy (herbicidal activity in percent) against Avena fatua (Avena fatua) | efficacy (herbicidal activity in percent) against Lolium multiflorum (Lolium multiflorum [6]) | efficacy (herbicidal activity in percent) against Setaria viridis (Setaria viridis [7]) | efficacy (herbicidal activity in percent) against Echinochloa crus-galli (Echinochloa crus-galli)

CCCOC1CCC2(C1)NC(=O)C(c1c(C)cc(C)cc1C)=C2OC(=O)OCC (stereo not shown) [Example I-1-c-17]
≥ 80%: efficacy (effect in %, beetle larvae killed) [1] | efficacy (effect in %, aphids killed) [2]

CCCOC1CCC2(C1)NC(=O)C(c1c(Br)cc(C)cc1CC)=C2OC(=O)OCC (stereo not shown) [Example I-1-c-18]
≥ 80%: efficacy (herbicidal activity in percent) against Lolium multiflorum (Lolium multiflorum [4]) | efficacy (herbicidal activity in percent) against Echinohcloa crus-gali (Echinohcloa crus-gali)

Reference: US8039014B2, “3′-alkoxyspirocyclopentyl-substituted tetramic and tetronic acids” (Bayer Cropscience AG, priority 2005, dated 2011)
